Data from PubChem BioAssay AID2685 (National Center for Advancing Translational Sciences (NCATS), 2010).
Where “and” joins values, the source holds several entries; their conditions need not be identical. Equal values may be shown once. The list shows a part of the results. Further columns of the screen follow, without active or inactive calls. Compounds called inactive in the main read-out are mostly missing here. The note in brackets gives the kind of curve behind each potency; many fits are weak.

Assay: qHTS Assay for Lipid Storage Modulators in Drosophila S3 Cells;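 for cell number change: cells counted by Cell Tracker Red CMTPX staining in the red channel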
Details: BODIPY lipid droplet fluorescence, 18-24 h; for cell number change: measured here: cell count max response, cells fed with added oleic acid
Summary of the method: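 Drosophila S3 cells loaded with oleic acid (400 uM, as added) and compounds at several concentrations; lipid droplets imaged by 488-nm laser-scanning cytometry, 500–530 nm intensity and object ratio to cell channel. Percent activity normalized to 20 uM Triacsin C.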

[1] = measured here: cell number channel AC50, cells fed with added oleic acid
[2] = measured here: lipid fluorescence (Fed channel) AC50, cells fed with added oleic acid

| Compound | cell number change | AC50 [1] | AC50 [2] |
| --- | --- | --- | --- |
| CN(Cc1ccccc1)C(=O)c1ccc(NC(=O)Cc2cccc(NC(=O)C3CCCN(C(=O)C4CCC4)C3)c2)cc1 (stereo not drawn) | 11.2% | 3.26 µM [falling, single point] | 29.1 µM [falling, single point] |
| CCN1C(=O)[C@H]2[C@@H](c3ccccc3)N3C(=O)N(c4cccc(F)c4)C(=O)[C@@]3(CC(C)C)[C@H]2C1=O | 11.7% | – | 2.31 µM [rising, single point] |
| O=C(COc1ccc(NC(=O)c2ccccc2)cc1)c1ccccc1 | -16.9% | – | – |
| C=CCNC(=O)NC(=O)COC(=O)COc1ccc(Br)cc1F | -4.34% | – | 0.366 µM [rising, full curve] |
| COc1ccc(-c2cc(-c3cc(C)ccc3O)[nH]n2)cc1 | -46.4% | 20.6 µM [falling, single point] | – |
| COC(=O)c1ccccc1N1CCS(=O)(=O)CC1 | – | – | 23.1 µM [falling, single point] |
| Cc1ccc(N2CCN(CC3CC=CCC3)CC2)cc1 (stereo not drawn) | -7.94% | – | 2.59 µM [falling, full curve] |
| O=C(/C=C/c1ccccc1Cl)Nc1ccc2c(c1)C(=O)NC2=O | -4.79% | 6.51 µM [falling, single point] | 6.51 µM [falling, partial curve] |
| Cc1cc(C)n(-c2ccc(C(=O)OCC(=O)Nc3cc(Cl)ccc3[N+](=O)[O-])cc2)n1 | -6.97% | – | – |
| O=[N+]([O-])c1cc([N+](=O)[O-])c(Oc2cccnc2Br)cc1NN1CCCCC1 | -2.91% | – | – |
| CCOc1nc(C)ccc1-c1noc(C)n1 | -0.978% | – | 0.00411 µM [rising, full curve, poor fit] |
| O=C(/C=C/c1ccccc1)NC(=S)Nc1ncccn1 | 12.6% | – | 3.66 µM [rising, partial curve, poor fit] |
| CC1CCCCC1NC(=O)COn1nnc2ccc(Cl)cc21 (stereo not drawn) | -1.82% | – | 0.00461 µM [falling, full curve, poor fit] |
| Cc1ccc(NC(=O)CSCC(=O)Nc2cc(C(F)(F)F)ccc2N2CCOCC2)cc1 | 7.24% | 2.31 µM [rising, single point] | 2.59 µM [rising, single point] |
| O=C(CNCc1ccccc1)Nc1ccc(Oc2ccccc2)cc1 | -11.2% | – | 25.9 µM [falling, single point] |
| CCCc1nnc(NC(=O)c2ccc(N3C(=O)C4C5C=CC(C5)C4C3=O)cc2)s1 (stereo not drawn) | -11.9% | – | 0.00461 µM [rising, full curve, poor fit] |
| COc1ccc(/C=C(\NC(=O)c2ccc(OC)cc2)C(=O)N2CCCCC2)cc1 | -9.07% | – | 0.0058 µM [rising, full curve, poor fit] |
| O=C(COC(=O)c1ccco1)Nc1ccc(Br)cc1 | -4.8% | – | 16.4 µM [falling, single point] |
| O=C(Nc1nc(-c2ccccc2)cs1)c1ccccc1NS(=O)(=O)c1ccc(F)cc1 | -26.7% | – | – |
| COc1ccc(C)cc1S(=O)(=O)N(CC(=O)Nc1cccc([N+](=O)[O-])c1)c1ccc(C)c(C)c1 | 19.1% | – | 5.8 µM [rising, full curve] |

| Compound | cell number change | AC50 [1] | AC50 [2] |
| --- | --- | --- | --- |
| CCOC(=O)C1=C(CSc2nc(-c3ccncc3)ccc2C#N)OC(N)=C(C#N)C1c1ccc(OC)cc1 (stereo not drawn) | 58.9% | 0.082 µM [rising, full curve] | – |
| CC(=O)Nc1ccc(S(=O)(=O)NC(C)C(=O)NCC(c2ccco2)N(C)C)cc1 (stereo not drawn) | 6.43% | – | – |
| COC(=O)Cc1ccc(NC(=S)N2CCN(C(=O)C3CCCO3)CC2)cc1 (stereo not drawn) | 28.8% | – | – |
| CCc1cc(C(=O)Nc2cc(S(=O)(=O)N(C)C)ccc2C)sc1C | -59.9% | 6.51 µM [falling, partial curve] | 29.1 µM [falling, single point] |
| COc1ccc(N)c2c1C(=O)c1ccccc1C2=O | 97% | 29.1 µM [rising, single point] | – |
| CC1CCN(C(=O)c2cccc(S(=O)(=O)N3CCN(c4ccccc4)CC3)c2)CC1 | 22.5% | 4.61 µM [rising, full curve, poor fit] | – |
| COCCNC(=O)C1c2cc(OC)c(OC)cc2C(=O)N(C)C1c1cccnc1 (stereo not drawn) | -16.9% | 3.26 µM [rising, partial curve] | 6.51 µM [rising, single point] |
| O=C(Nc1ccc(S(=O)(=O)N2CCCCC2)cc1)c1ccccc1F | 3.78% | – | 29.1 µM [falling, single point] |
| COc1ccccc1C(=O)NCC(=O)OCC(=O)Nc1cccc(S(=O)(=O)N(C)C)c1 | -27% | – | 6.51 µM [falling, single point] |
| C=CCc1ccc(OCCCCN2CCC(C)CC2)c(OC)c1 | 3.21% | 3.66 µM [rising, single point] | 1.84 µM [rising, single point] |
| O=C1CCCC(O)=C1N=Nc1cccc(C(=O)O)c1 | -39.1% | 3.66 µM [falling, full curve, poor fit] | 6.51 µM [falling, single point] |
| NC(=O)c1ccc(N=C2C(=O)Nc3ccc([N+](=O)[O-])cc32)cc1 | -29.6% | – | 29.1 µM [falling, single point] |
| CCOC(=O)/C(N=Nc1sc(C(=O)OCC)c(C)c1C(=O)OCC)=C(\C)O | 7.36% | – | 0.461 µM [rising, full curve, poor fit] |
| COC(C(=O)Nc1ccccc1C(=O)N1CCOCC1)c1ccccc1 (stereo not drawn) | – | – | 4.11 µM [rising, full curve] |
| O=C(NC1CC1)c1cc2ccccc2o1 | -23.3% | – | – |
| CC1CCN(CCNC(=O)C2CCCN(S(=O)(=O)c3cccc4nonc34)C2)CC1 (stereo not drawn) | -0.419% | – | 0.164 µM [falling, partial curve, poor fit] |
| COc1cc(C(=O)Nc2ccc(O)cc2)ccc1OC(C)=O | 1.45% | – | 16.4 µM [falling, partial curve] |
| CC(=O)c1ccccc1NC(=O)c1ccc2c(c1)NC(=O)C(C)S2 (stereo not drawn) | 30.5% | 29.1 µM [rising, single point] | – |
| COc1cccc(CSc2nnc(C(F)(F)F)n2Cc2ccc(F)cc2)c1 | 35.3% | 25.9 µM [rising, single point] | 29.1 µM [rising, single point] |
| CC(C)(C)NC(=O)CC(c1ccccc1)c1ccccc1O (stereo not drawn) | – | – | 0.651 µM [falling, single point] |

| Compound | cell number change | AC50 [1] | AC50 [2] |
| --- | --- | --- | --- |
| CCOC(=O)[C@@H]1[C@H]2COc3ccccc3[C@@H]2N2C(=O)N(c3cccc(Cl)c3)C(=O)[C@]12C | 29.9% | – | – |
| Cc1cc2ncn(CCCCOc3ccccc3)c2cc1C | -49% | 25.9 µM [falling, single point] | 2.59 µM [rising, partial curve] |
| COc1ccccc1/C=N/n1c(C)nnc1-n1nc(C)cc1C | -3.25% | – | 0.00517 µM [falling, full curve, poor fit] |
| Cc1ccc2c(c1)cc1c(=O)n(CC(=O)NCc3ccccn3)nc(C)n12 | 2.47% | 1.64 µM [rising, partial curve, poor fit] | – |
| CN(CC(=O)Nc1ccccc1Cl)C(=O)C1CCN(S(=O)(=O)c2ccc3c(c2)OCCO3)CC1 | 43% | 23.1 µM [rising, single point] | 23.1 µM [rising, single point] |
| CN(C)CCCOC(=O)c1cc2ccccc2o1 | -12% | – | 1.46 µM [falling, full curve, poor fit] |
| NC(=O)C1(C(N)=O)OC1c1ccc(Cl)cc1Cl (stereo not drawn) | -16.7% | 0.116 µM [falling, full curve, poor fit] | 3.26 µM [falling, full curve] |
| COc1cc2cnc(Cl)nc2cc1OC | -26.6% | – | 18.4 µM [falling, partial curve] |
| O=c1[nH]c(S)nc2sc3c(c12)CCCC3 | -23.1% | – | 1.84 µM [falling, partial curve] |
| CCOC(=O)c1cc(C#N)c(C)nc1N(CC)CC | -1.41% | – | 0.731 µM [falling, full curve, poor fit] |
| Cc1ccc2[nH]c(C(=O)O)c(NC(=O)c3ccccc3[N+](=O)[O-])c2c1 | -1.6% | – | – |
| CCS(=O)(=O)c1ccc2c(c1)N(S(=O)(=O)c1cccs1)CC(C(=O)O)O2 (stereo not drawn) | -25.5% | 3.98 µM [falling, full curve, poor fit] | 1.41 µM [falling, full curve, poor fit] |
| CC(C)(O)C#Cc1ccc(CN2CCC(n3nccc3NC(=O)C3CC3)CC2)cc1 | 3.4% | – | 6.51 µM [rising, single point] |
| O=C(CSCCO)Nc1ccc([N+](=O)[O-])cc1 | 1.27% | 3.66 µM [falling, single point] | – |
| CCOc1ccccc1OCC(=O)Nc1c(C)n(C)n(-c2ccccc2)c1=O | -2.57% | – | 29.1 µM [falling, single point] |
| O=C(Cc1n[nH]c(=O)c2ccccc12)Nc1cc(C(F)(F)F)ccc1-n1cncn1 | – | – | 0.461 µM [rising, partial curve, poor fit] |
| CS(=O)(=O)c1ccc(Sc2nc3ccccc3[nH]2)c([N+](=O)[O-])c1 | -26.2% | – | – |
| NC(=O)c1cccc(-c2noc(-c3ccccc3F)n2)c1 | -23.6% and 48.8% | 32.6 µM [rising, partial curve, poor fit] | 25.9 µM [falling, partial curve, poor fit] |
| CCN(CC(=O)Nc1ccc(NC(C)=O)cc1)C(=O)/C=C/c1c(C)nn(-c2ccc(F)cc2)c1C | 63.7% | 5.17 µM [rising, partial curve] | 10.3 µM [rising, partial curve] |

In the list so far, 4 contain a furan ring, fused or not.

| Compound | cell number change | AC50 [1] | AC50 [2] |
| --- | --- | --- | --- |
| O=C(COC(=O)c1ccco1)Nc1ccc(Br)cc1 | -4.8% | – | 16.4 µM [falling, single point] |
| CC(=O)Nc1ccc(S(=O)(=O)NC(C)C(=O)NCC(c2ccco2)N(C)C)cc1 (stereo not drawn) | 6.43% | – | – |
| O=C(NC1CC1)c1cc2ccccc2o1 | -23.3% | – | – |
| CN(C)CCCOC(=O)c1cc2ccccc2o1 | -12% | – | 1.46 µM [falling, full curve, poor fit] |

Reprinted at random: 2 records from the list, in no set order.

| Compound | cell number change | AC50 [1] | AC50 [2] |
| --- | --- | --- | --- |
| COc1ccc(/C=C(\NC(=O)c2ccc(OC)cc2)C(=O)N2CCCCC2)cc1 | -9.07% | – | 0.0058 µM [rising, full curve, poor fit] |
| COC(=O)c1ccccc1N1CCS(=O)(=O)CC1 | – | – | 23.1 µM [falling, single point] |
